The results in this text go back to PubChem BioAssay AID2685 (National Center for Advancing Translational Sciences (NCATS), 2010).

Molecules are shown by their SMILES. The list shows a part of the results. These are further read-outs of the screen, such as a control signal, another cell line or another target. No call is given for them. Compounds called inactive in the main read-out are mostly missing here. Potencies come from curve fits of mixed quality, noted in brackets.

The assay is described as follows: qHTS Assay for Lipid Storage Modulators in Drosophila S3 Cells.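 For cell number change: cells counted by Cell Tracker Red CMTPX staining in the red channel.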 The conditions noted are these: BODIPY lipid droplet fluorescence, 18-24 h; for cell number change: measured here: cell count max response, cells fed with added oleic acid. The method in brief: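 Drosophila S3 cells got compounds at several concentrations plus oleic acid (400 uM solution). Laser-scanning cytometry with 488 nm excitation read lipid droplets at 500-530 nm and cells at 575-640 nm. Percent activity was relative to 20 uM Triacsin C.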
On the technique in general: In qHTS, concentration-response curves come from the screen itself.

Setting [1] is: measured here: cell number channel AC50, cells fed with added oleic acid.
The mark [2] stands for this setting: measured here: lipid fluorescence (Fed channel) AC50, cells fed with added oleic acid.

As for `Cc1ccc(-n2c(C)nn(CCOc3ccccc3)c2=O)cc1`, the cell number change is -46.7%. As to `CC1CCN(C(=O)CCNC(=O)Cn2cnc3sc4c(c3c2=O)CCCC4)CC1`, the cell number change was 55.7%. Further, the half-maximal activity concentration (AC50) under setting [1] was 3.66 µM [falling, single point].

For `CCOC(=O)C1CCN(C(=O)CCCOc2ccccc2)CC1`, the cell number change was determined as 11%. Besides, under setting [2], the AC50 was 29.1 µM [falling, partial curve]. In the case of `CCCCCCNC(=O)CCc1nc2cccnc2n1Cc1ccc(OC)cc1`, the cell number change stood at 20.2%. Moreover, the AC50 under setting [2] is 29.1 µM [falling, single point]. With `OC(CN1CCOCC1)(c1ccccc1)c1ccccn1` (stereo not drawn), the AC50 under setting [1] was 0.0058 µM [rising, full curve, poor fit]. Consider `O=C(NCC(c1ccco1)N1CCN(c2ccccc2F)CC1)c1cccs1` (stereo not drawn), for which the cell number change is 49.2%. Also, the concentration at half-maximal activity (AC50) under setting [1] is 29.1 µM [rising, single point]. Under setting [2], the concentration at half-maximal activity (AC50) is 5.17 µM [rising, partial curve]. Take `O=C(CN1C(=O)C2(OCCCO2)c2ccccc21)NCCc1ccccc1`: the cell number change is -39.5%. Also, the AC50 under setting [1] is 0.00366 µM [falling, full curve, poor fit]. Also, the AC50 under setting [2] is 13 µM [falling, partial curve]. As for `CCc1nnc(NC(=O)CSc2nc3c(c(=O)n2CC)SC(C)C3)s1` (stereo not drawn), the AC50 under setting [2] was 0.731 µM [rising, single point]. Regarding `O=[N+]([O-])c1cc(/C=N/N2CCCCC2)ccc1Cl`, the AC50 is, setting by setting: under setting [1], 2.59 µM [rising, single point]; under setting [2], 2.31 µM [rising, single point]. In the case of `COc1ccc(/C=N/N=C2\SCC(=O)N2c2c(C)n(C)n(-c3ccccc3)c2=O)cc1OC`, the cell number change worked out at 12.4%. Also, under setting [2], the half-maximal activity concentration (AC50) was 3.26 µM [falling, single point]. On to `Cn1c(C(=O)O)c(S(=O)(=O)c2ccc(Cl)cc2)c2ccccc21`, for which the cell number change turned out to be 22.5%. The concentration at half-maximal activity (AC50) under setting [1] is 0.0651 µM [rising, full curve, poor fit]. In addition, under setting [2], the half-maximal activity concentration (AC50) was 0.082 µM [rising, full curve, poor fit].

In the case of `CCOc1ccccc1NC1=NCC(=O)N1Cc1ccc(F)cc1`, the cell number change was -16.2%. In addition, the concentration at half-maximal activity (AC50) under setting [2] is 29.1 µM [rising, single point].

Turning to `CCn1c(COc2ccc(Cl)cc2)nnc1SC1CCc2ccccc2C1=O` (stereo not drawn), the cell number change stood at 21.8%. Under setting [2], the AC50 is 0.0326 µM [rising, full curve, poor fit]. As for `O=C(c1ccco1)N1CCN(c2ncnc3c2[nH]c2ccc(Br)cc23)CC1`, the cell number change is 91.5%. Besides, the AC50 under setting [1] is 0.411 µM [rising, full curve]. The AC50 under setting [2] is 0.231 µM [rising, partial curve, poor fit]. Turning to `CCOC(=O)C1CCCN(C(=O)c2cc(Cl)ccc2NC(=O)C2=C(C)OCCS2)C1` (stereo not drawn), the cell number change is 19.1%. In addition, the concentration at half-maximal activity (AC50) under setting [2] was 6.51 µM [falling, single point]. On to `O=C(N/N=C/C=C/c1ccc(Br)cc1)C(O)c1ccccc1` (stereo not drawn), for which the cell number change worked out at 66.4%. For the same compound, the half-maximal activity concentration (AC50) under setting [1] was 29.1 µM [rising, single point]. Consider `COc1cc(C(=O)OCC(=O)N2c3ccccc3NC(=O)C2(C)C)ccc1OCC(C)C`, for which the cell number change turned out to be 1.41%. Under setting [2], the AC50 was 8.2 µM [falling, partial curve].

As to `O=C(NCCCN1CCOCC1)c1ccc2c(=O)n(Cc3ccc(Cl)cc3)c(=S)[nH]c2c1`, the cell number change is -2.99%.

Consider `Cc1cc(NCC2CCCO2)n2c(nc3ccccc32)c1C#N` (stereo not drawn), for which the cell number change is -18.3%. The AC50 under setting [2] was 2.31 µM [falling, single point]. Take `Cc1ccc(N2C(=O)N(CC(=O)NCc3ccccc3Cl)C(=O)C2C)cc1` (stereo not drawn): the cell number change is -10.7%. `CCn1nc(C)cc1C(=O)Sc1ccc(Cl)cc1Cl`: the cell number change is -12.6%. Further, the AC50 under setting [1] was 0.82 µM [rising, single point]. For the same compound, under setting [2], the AC50 was 0.103 µM [falling, full curve, poor fit]. `CCOC(=O)C1CCN(C(=O)C2(NC(=O)Nc3ccccc3C)CCCCC2)CC1`: the cell number change amounted to 7.21%. For the same compound, the concentration at half-maximal activity (AC50) under setting [2] is 4.11 µM [falling, full curve]. For `Cn1c(=O)[nH]c(=O)c2c1nc(SCC(=O)O)n2Cc1ccccc1`, the cell number change turned out to be 4.2%. Take `CCOC(=O)C(NC(C)=O)C(OC(C)=O)c1cccc(N(CCO)CCO)c1` (stereo not drawn): the cell number change was found to be 4.89%. For the compound `O=C1CCN(CCc2ccccc2)CCN1[C@H](CSc1ccccc1)Cc1ccccc1`, the cell number change was determined as 7.19%. Besides, the AC50 under setting [2] was 6.51 µM [rising, partial curve]. Turning to `COc1ccc(C(=O)N(CCc2ccccc2)Cc2cccs2)c(OC)c1`, the AC50 under setting [2] is 14.6 µM [falling, partial curve]. For the compound `O=C(NC1CCCCC1)C(c1ccccc1)N(C(=O)c1csnn1)C1CC1` (stereo not drawn), the cell number change was determined as 0.806%. Under setting [2], the AC50 is 4.11 µM [falling, full curve].

As for `CCCCC[C@H]1CN(Cc2ccc(OC)cc2)C(=O)[C@@H]1CC(=O)NCc1ccccc1`, the cell number change was -14.7%. Under setting [2], the AC50 is 29.1 µM [falling, single point]. For `COc1ccc(OCc2cc(C(=O)NC3CCOC(C)(C)C3)no2)c2ccccc12` (stereo not drawn), the half-maximal activity concentration (AC50) under setting [2] was 23.1 µM [falling, single point]. With `CC(=O)c1c(C)[nH]c(C(=O)Nc2nc(-c3ccc(-c4ccccc4)cc3)cs2)c1C`, the cell number change is -48.2%. Further, the AC50 under setting [1] is 29.1 µM [falling, single point]. The AC50 under setting [2] is 2.06 µM [rising, partial curve].

With `CCn1c(=O)c2cc(C(=O)N3CCOCC3)sc2c2ccccc21`, the cell number change came out at 5.92%. Besides, the AC50 under setting [1] is 2.06 µM [rising, partial curve]. Besides, the half-maximal activity concentration (AC50) under setting [2] was 1.03 µM [rising, partial curve]. As for `CC(=O)Nc1ccc(NC(=O)COc2ccc(-c3ccc(C#N)cc3)cc2)cc1`, the cell number change stood at 3.11%. Besides, the concentration at half-maximal activity (AC50) under setting [2] was 6.51 µM [falling, single point]. In the case of `CCNC(=S)Nc1cc(OCC)c(NC(=O)c2ccco2)cc1OCC`, the cell number change was 17.1%. In addition, the half-maximal activity concentration (AC50) under setting [2] is 0.58 µM [rising, full curve, poor fit]. On to `CN(C1CC(C)(C)NC(C)(C)C1)S(=O)(=O)CC12CCC(CC1=O)C2(C)C` (stereo not drawn), for which the cell number change was -11.8%. Moreover, under setting [2], the AC50 was 0.651 µM [falling, full curve, poor fit]. Take `O=S(=O)(c1ccc2[nH]c3c(c2c1)CCCC3)N1CCCCC1`: the cell number change was -20.3%.

As to `c1ccc(-c2nccc(-c3ccc(-n4cnc5ccccc54)cc3)n2)cc1`, the cell number change was -65.2%. Also, the half-maximal activity concentration (AC50) under setting [1] is 29.1 µM [falling, single point]. For the same compound, the concentration at half-maximal activity (AC50) under setting [2] was 20.6 µM [falling, single point]. Consider `O=S(=O)(c1ccc(N2CCC(c3ccc(Cl)cc3)=N2)cc1)N(CCO)CCO`, for which the cell number change was -74.5%. Moreover, the AC50 under setting [1] is 29.1 µM [falling, single point]. The AC50 under setting [2] is 29.1 µM [falling, partial curve].

For orientation: AC50 means the concentration at which the activity in the assay is half-maximal.
